{"sequences": {"note": "Protein sequences, listed by entry. Tags and fused reporters are not part of them.", "UniProt P27008": "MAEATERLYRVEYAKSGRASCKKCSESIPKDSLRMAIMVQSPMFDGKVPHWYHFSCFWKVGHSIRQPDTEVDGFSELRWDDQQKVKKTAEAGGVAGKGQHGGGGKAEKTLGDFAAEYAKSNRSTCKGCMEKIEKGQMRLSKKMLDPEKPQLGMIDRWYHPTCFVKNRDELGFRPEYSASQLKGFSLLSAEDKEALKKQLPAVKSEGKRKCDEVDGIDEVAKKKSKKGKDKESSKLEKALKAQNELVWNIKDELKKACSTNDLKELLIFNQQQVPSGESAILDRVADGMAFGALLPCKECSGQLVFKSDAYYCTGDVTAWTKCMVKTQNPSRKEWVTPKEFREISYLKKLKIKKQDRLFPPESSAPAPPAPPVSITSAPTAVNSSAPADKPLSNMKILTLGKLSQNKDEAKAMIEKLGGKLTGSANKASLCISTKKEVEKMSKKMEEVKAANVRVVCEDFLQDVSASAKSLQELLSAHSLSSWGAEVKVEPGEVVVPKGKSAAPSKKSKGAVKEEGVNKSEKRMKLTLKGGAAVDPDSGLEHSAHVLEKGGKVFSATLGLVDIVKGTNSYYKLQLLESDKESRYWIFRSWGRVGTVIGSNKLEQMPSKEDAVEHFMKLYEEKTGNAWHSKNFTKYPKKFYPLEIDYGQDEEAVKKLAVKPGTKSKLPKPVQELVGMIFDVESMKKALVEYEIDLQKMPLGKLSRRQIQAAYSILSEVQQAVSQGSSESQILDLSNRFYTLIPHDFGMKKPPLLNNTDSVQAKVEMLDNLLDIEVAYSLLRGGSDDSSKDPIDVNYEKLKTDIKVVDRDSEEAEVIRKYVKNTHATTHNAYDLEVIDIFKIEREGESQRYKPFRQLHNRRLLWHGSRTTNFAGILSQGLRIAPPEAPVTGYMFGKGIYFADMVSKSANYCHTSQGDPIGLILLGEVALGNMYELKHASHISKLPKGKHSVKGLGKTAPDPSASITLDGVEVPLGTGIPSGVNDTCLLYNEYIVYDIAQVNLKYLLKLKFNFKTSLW", "UniProt P09874": "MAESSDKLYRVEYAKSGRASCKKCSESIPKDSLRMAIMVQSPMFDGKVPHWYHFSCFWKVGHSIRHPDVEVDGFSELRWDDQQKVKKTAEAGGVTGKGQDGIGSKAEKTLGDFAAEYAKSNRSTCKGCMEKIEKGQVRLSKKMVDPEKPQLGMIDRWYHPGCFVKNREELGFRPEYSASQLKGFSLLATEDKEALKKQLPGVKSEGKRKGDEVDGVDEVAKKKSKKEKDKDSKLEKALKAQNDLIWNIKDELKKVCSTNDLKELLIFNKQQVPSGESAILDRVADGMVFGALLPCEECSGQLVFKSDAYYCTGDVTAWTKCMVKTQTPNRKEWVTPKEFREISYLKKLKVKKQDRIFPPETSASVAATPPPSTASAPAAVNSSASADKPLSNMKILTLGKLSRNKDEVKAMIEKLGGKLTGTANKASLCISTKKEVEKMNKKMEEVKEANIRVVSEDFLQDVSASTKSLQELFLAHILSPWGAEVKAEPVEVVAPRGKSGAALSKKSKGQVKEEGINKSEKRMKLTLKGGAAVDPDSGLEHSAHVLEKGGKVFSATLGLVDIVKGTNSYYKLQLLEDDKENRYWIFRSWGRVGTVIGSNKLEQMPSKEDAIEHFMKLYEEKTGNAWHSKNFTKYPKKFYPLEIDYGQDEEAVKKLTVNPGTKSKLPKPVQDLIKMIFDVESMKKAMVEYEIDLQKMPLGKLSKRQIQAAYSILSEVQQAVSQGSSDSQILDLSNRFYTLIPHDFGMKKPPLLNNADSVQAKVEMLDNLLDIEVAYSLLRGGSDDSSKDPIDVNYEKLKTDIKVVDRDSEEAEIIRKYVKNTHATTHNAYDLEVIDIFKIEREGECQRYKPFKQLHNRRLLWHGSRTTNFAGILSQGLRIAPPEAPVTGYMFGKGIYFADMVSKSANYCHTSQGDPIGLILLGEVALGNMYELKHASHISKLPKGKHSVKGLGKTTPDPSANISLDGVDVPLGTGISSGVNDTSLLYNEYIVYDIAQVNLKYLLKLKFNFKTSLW", "UniProt P34058": "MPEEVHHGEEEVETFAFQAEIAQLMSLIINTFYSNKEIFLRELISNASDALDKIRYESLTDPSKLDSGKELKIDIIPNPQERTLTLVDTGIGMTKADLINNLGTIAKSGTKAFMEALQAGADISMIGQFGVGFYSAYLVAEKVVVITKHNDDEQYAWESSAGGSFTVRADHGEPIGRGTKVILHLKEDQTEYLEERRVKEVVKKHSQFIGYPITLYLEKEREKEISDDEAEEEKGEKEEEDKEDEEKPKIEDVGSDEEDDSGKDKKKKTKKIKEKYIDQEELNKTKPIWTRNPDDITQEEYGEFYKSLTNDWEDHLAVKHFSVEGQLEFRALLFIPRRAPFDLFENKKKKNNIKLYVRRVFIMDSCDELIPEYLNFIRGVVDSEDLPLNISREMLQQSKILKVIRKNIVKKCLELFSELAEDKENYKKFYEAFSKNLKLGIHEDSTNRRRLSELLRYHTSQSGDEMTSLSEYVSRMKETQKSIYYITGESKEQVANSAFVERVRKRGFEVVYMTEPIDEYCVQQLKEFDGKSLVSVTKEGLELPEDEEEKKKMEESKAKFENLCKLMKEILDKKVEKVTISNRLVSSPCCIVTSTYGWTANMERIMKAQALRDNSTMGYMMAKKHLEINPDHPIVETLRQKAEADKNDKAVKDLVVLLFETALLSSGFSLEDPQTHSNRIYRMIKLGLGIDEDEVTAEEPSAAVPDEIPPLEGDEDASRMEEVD", "UniProt P08238": "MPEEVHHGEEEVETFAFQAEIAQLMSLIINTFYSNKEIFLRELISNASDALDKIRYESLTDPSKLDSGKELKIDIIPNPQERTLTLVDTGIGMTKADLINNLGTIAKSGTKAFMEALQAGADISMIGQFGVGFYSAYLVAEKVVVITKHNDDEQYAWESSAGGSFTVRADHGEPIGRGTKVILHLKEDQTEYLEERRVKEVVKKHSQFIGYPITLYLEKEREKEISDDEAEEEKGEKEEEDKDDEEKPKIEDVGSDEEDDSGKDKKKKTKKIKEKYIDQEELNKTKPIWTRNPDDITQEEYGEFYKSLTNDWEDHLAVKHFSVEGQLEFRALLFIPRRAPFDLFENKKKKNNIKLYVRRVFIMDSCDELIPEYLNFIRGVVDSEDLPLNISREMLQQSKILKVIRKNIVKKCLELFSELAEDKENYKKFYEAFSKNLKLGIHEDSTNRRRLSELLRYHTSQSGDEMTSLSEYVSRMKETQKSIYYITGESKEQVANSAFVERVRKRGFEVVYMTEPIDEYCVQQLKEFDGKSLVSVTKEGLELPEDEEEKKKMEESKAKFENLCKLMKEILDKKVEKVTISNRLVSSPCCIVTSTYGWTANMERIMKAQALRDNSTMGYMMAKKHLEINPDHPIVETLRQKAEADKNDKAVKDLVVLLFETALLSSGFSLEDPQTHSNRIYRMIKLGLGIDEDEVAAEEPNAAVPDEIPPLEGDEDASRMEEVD"}, "source": "paper PMC10929182", "molecules": {"B1": {"name": "Cell Division Cycle 37 (CDC37), endogenous in neonatal rat cardiomyocytes (protein, UniProt Q63692 1-379)", "chain": "MVDYSVWDHIEVSDDEDETHPNIDTASLFRWRHQARVERMEQFQKEKEELDRGCRECKRKVAECQRKLKELEVAEGGGQVELERLRAEAQQLRKEERSWEQKLEDMRKKEKNMPWNVDTLSKDGFSKSMVNTKPEKAEEDSEEAREQKHKTFVEKYEKQIKHFGMLHRWDDSQKYLSDNVHLVCEETANYLVIWCIDLEVEEKCALMEQVAHQTMVMQFILELAKSLKVDPRACFRQFFTKIKTADQQYMEGFKYELEAFKERVRGRAKLRIEKAMKEYEEEERKKRLGPGGLDPVEVYESLPEELQKCFDVKDVQMLQDAISKMDPTDAKYHMQRCIDSGLWVPNSKSGEAKEGEEAGPGDPLLEAVPKAGNEKDISA"}, "B2": {"name": "CDK4, endogenous in neonatal rat cardiomyocytes (protein, UniProt P35426 1-303)", "chain": "MATTRYEPVAEIGVGAYGTVYKARDPHSGHFVALKSVRVPNGGAAGGGLPVSTVREVALLRRLEAFEHPNVVRLMDVCATSRTDRDIKVTLVFEHIDQDLRTYLDKAPPPGLPVETIKDLMRQFLSGLDFLHANCIVHRDLKPENILVTSNGTVKLADFGLARIYSYQMALTPVVVTLWYRAPEVLLQSTYATPVDMWSVGCIFAEMFRRKPLFCGNSEADQLGKIFDLIGLPPEDDWPREVSLPRGAFSPRGPRPVQSVVPEMEESGAQLLLEMLTFNPLKRISAFRALQHSYLHKEESDPE"}}, "key": {"[1]": {"biological_target": "Poly(ADP-Ribose) Polymerase 1 (PARP1), endogenous in neonatal rat cardiomyocytes (rat (endogenous in NRCMs)) (UniProt P27008)", "test": "co-IP; NRCM lysates incubated with the antibody of interest or IgG overnight at 4 °C, Protein A/G magnetic beads 2-4 h at 4 °C, western blot; cells untreated, infected with Ad-Ctrl or Ad-PARP1, or transfected with si-Ctrl or si-PARP1"}, "PARP1-CFP": {"biological_target": "PARP1-CFP (UniProt P09874)", "test": "FRET or BRET; FRET in HEK293T cells transfected with PARP1-CFP, HSP90-YFP or empty vector; confocal microscopy 24-48 h after transfection"}, "[2]": {"biological_target": "Heat Shock Protein 90 Alpha Family Class B Member 1 (HSP90AB1), endogenous in neonatal rat cardiomyocytes (rat (endogenous in NRCMs)) (UniProt P34058)", "test": "co-IP; NRCM lysates incubated with the antibody of interest or IgG overnight at 4 °C, Protein A/G magnetic beads 2-4 h at 4 °C, western blot; cells untreated, infected with Ad-Ctrl or Ad-PARP1, or transfected with si-Ctrl or si-PARP1"}, "PARP1-VC155": {"biological_target": "PARP1-VC155 (UniProt P09874)", "test": "split reporter; BiFC in HEK293T cells transfected with PARP1-VC155 or HSP90-VN173 or empty vector; confocal microscopy 24-48 h after transfection"}, "[3]": {"biological_target": "Heat Shock Protein 90 Alpha Family Class B Member 1 (HSP90AB1), endogenous in neonatal rat cardiomyocytes (rat (endogenous in NRCMs)) (UniProt P34058)", "test": "co-IP; NRCM lysates incubated with the antibody of interest or IgG overnight at 4 °C, Protein A/G magnetic beads 2-4 h at 4 °C, western blot; cells untreated, infected with Ad-Ctrl or Ad-PARP1, or transfected with si-Ctrl or si-PARP1", "remark": "listed apart in the source"}, "[4]": {"biological_target": "T1, Cell Division Cycle 37 (CDC37), endogenous in neonatal rat cardiomyocytes (rat (endogenous in NRCMs)) (UniProt Q63692)", "T1 sequence": "B1 chain", "test": "co-IP; NRCM lysates incubated with the antibody of interest or IgG overnight at 4 °C, Protein A/G magnetic beads 2-4 h at 4 °C, western blot; cells untreated, infected with Ad-Ctrl or Ad-PARP1, or transfected with si-Ctrl or si-PARP1"}}, "note": "Like-named read-outs stand apart in the source and are kept apart here. No constants are given. Whether binding was seen depends on the method and setting. In cells and extracts the contact can be indirect. Some entries that bind do so weakly or less than the wild type.", "data": [{"molecule": "Heat Shock Protein 90 Alpha Family Class B Member 1 (HSP90AB1), endogenous in neonatal rat cardiomyocytes (from UniProt P34058 1-724)", "values": [{"measurement": "binding", "setting": "[1]", "result": "binds"}]}, {"molecule": "HSP90-YFP (from UniProt P08238 1-724)", "values": [{"measurement": "binding", "setting": "PARP1-CFP", "result": "binds"}]}, {"molecule": "Poly(ADP-Ribose) Polymerase 1 (PARP1), endogenous in neonatal rat cardiomyocytes (from UniProt P27008 1-1014)", "values": [{"measurement": "binding", "setting": "[2]", "result": "binds"}]}, {"molecule": "HSP90-VN173 (from UniProt P08238 1-724)", "values": [{"measurement": "binding", "setting": "PARP1-VC155", "result": "binds"}]}, {"molecule": "B1", "values": [{"measurement": "binding", "setting": "[3]", "result": "binds"}]}, {"molecule": "B2", "values": [{"measurement": "binding", "setting": "[3]", "result": "binds"}, {"measurement": "binding", "setting": "[4]", "result": "binds"}]}]}
